# Some results were stated once for a whole list of compounds, not compound by compound.
# Sequences of proteins named here, by UniProt entry; tags and fusion partners are left off.
# UniProt P10721, whole entry D816V: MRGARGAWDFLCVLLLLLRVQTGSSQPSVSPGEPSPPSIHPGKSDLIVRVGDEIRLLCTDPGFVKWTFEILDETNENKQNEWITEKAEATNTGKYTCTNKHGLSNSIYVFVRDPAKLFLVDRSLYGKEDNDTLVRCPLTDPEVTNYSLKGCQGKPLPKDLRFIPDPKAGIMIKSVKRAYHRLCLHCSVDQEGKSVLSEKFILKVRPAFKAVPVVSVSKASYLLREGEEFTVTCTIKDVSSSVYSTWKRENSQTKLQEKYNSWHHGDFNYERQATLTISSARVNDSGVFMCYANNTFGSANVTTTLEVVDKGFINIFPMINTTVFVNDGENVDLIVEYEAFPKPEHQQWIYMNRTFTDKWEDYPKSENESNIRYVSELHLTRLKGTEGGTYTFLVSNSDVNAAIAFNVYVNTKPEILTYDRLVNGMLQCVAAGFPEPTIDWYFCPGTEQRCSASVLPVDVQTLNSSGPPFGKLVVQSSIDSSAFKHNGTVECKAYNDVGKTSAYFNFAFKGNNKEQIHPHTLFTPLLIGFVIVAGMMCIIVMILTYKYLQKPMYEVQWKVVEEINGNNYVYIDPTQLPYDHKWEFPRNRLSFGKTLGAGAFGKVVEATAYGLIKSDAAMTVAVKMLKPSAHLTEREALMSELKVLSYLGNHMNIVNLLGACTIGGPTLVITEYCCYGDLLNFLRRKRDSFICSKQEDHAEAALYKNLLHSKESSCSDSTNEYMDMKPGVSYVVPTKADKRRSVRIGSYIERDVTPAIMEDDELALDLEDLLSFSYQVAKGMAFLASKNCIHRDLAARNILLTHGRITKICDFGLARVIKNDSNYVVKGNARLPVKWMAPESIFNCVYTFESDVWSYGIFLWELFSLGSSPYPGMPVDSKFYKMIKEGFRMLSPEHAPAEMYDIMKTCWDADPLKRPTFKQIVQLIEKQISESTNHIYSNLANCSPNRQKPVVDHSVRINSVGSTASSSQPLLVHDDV
# Biological target: BaF3-FL KIT D816V cells (Homo sapiens, UniProt P10721, D816V, cells depend on it, form not given)
# Assay: Cell-based assay of c-Kit mutant kinase activity, BaF3-FL KIT D816V cell proliferation (ATPlite)
# Details: in at least one of the c-kit cell assays described in Example 28 (BaF3-FL KIT D816V or BaF3-FL KIT V560G/D816V); read-out: IC50 (the source's name)
row,Compound,GI50 [µM]
1,"COc1cccc([C@H](C)NC(=O)N2CCN(c3ncnc4[nH]c(-c5ccc(Cl)cc5)cc34)CC2)c1 [P-0038, 4-[6-(4-chlorophenyl)-7H-pyrrolo[2,3-d]pyrimidin-4-yl]-N-[(1S)-1-(3-methoxyphenyl)ethyl]piperazine-1-carboxamide]",< 10
2,"Cc1ccc(NC(=O)N2CCN(c3ncnc4[nH]c(-c5ccncc5)cc34)C[C@@H]2C)cn1 [P-0039, (2S)-2-methyl-N-(6-methyl-3-pyridyl)-4-[6-(4-pyridyl)-7H-pyrrolo[2,3-d]pyrimidin-4-yl]piperazine-1-carboxamide]",< 10
3,"C[C@H]1CN(c2ncnc3[nH]c(-c4ccncc4)cc23)CCN1C(=O)NCc1cccc(Cl)c1 [P-0040, (2S)-N-[(3-chlorophenyl)methyl]-2-methyl-4-[6-(4-pyridyl)-7H-pyrrolo[2,3-d]pyrimidin-4-yl]piperazine-1-carboxamide]",< 10
4,"C[C@H]1CN(c2ncnc3[nH]c(-c4ccncc4)cc23)CCN1C(=O)NCc1ccc(F)cc1 [P-0041, (2S)-N-[(4-fluorophenyl)methyl]-2-methyl-4-[6-(4-pyridyl)-7H-pyrrolo[2,3-d]pyrimidin-4-yl]piperazine-1-carboxamide]",< 10
5,"C[C@H]1CN(c2ncnc3[nH]c(-c4ccncc4)cc23)CCN1C(=O)Nc1ccc(F)c(Cl)c1 [P-0042, (2S)-N-(3-chloro-4-fluoro-phenyl)-2-methyl-4-[6-(4-pyridyl)-7H-pyrrolo[2,3-d]pyrimidin-4-yl]piperazine-1-carboxamide]",< 10
6,"C[C@H]1CN(c2ncnc3[nH]c(-c4ccncc4)cc23)CCN1C(=O)Nc1ccc(OC(F)(F)F)cc1 [P-0043, (2S)-2-methyl-4-[6-(4-pyridyl)-7H-pyrrolo[2,3-d]pyrimidin-4-yl]-N-[4-(trifluoromethoxy)phenyl]piperazine-1-carboxamide]",< 10
7,"C[C@H]1CN(c2ncnc3[nH]c(-c4ccncc4)cc23)CCN1C(=O)NCc1ccc(Cl)cc1 [P-0044, (2S)-N-[(4-chlorophenyl)methyl]-2-methyl-4-[6-(4-pyridyl)-7H-pyrrolo[2,3-d]pyrimidin-4-yl]piperazine-1-carboxamide]",< 10
8,"C[C@H]1CN(c2ncnc3[nH]c(-c4ccncc4)cc23)CCN1C(=O)Nc1ccc(Cl)cc1 [P-0045, (2S)-N-(4-chlorophenyl)-2-methyl-4-[6-(4-pyridyl)-7H-pyrrolo[2,3-d]pyrimidin-4-yl]piperazine-1-carboxamide]",< 10
9,"COc1cccc([C@H](C)NC(=O)N2CCN(c3ncnc4[nH]c(C#CC5CC5)cc34)CC2)c1 [P-0047, 4-[6-(2-cyclopropylethynyl)-7H-pyrrolo[2,3-d]pyrimidin-4-yl]-N-[(1S)-1-(3-methoxyphenyl)ethyl]piperazine-1-carboxamide]",< 10
10,"CC[C@H](NC(=O)N1CCN(c2ncnc3[nH]c(-c4ccncc4)cc23)C[C@@H]1C)c1ccccc1 [P-0048, (2S)-2-methyl-N-[(1S)-1-phenylpropyl]-4-[6-(4-pyridyl)-7H-pyrrolo[2,3-d]pyrimidin-4-yl]piperazine-1-carboxamide]",< 10
11,"C[C@H](NC(=O)N1CCN(c2ncnc3[nH]c(-c4ccncc4)cc23)C[C@@H]1C)c1ccc(F)cc1 [P-0049, (2S)-N-[(1S)-1-(4-fluorophenyl)ethyl]-2-methyl-4-[6-(4-pyridyl)-7H-pyrrolo[2,3-d]pyrimidin-4-yl]piperazine-1-carboxamide]",< 10
12,"C[C@H](NC(=O)N1CCN(c2ncnc3[nH]c(-c4ccncc4)cc23)C[C@@H]1C)c1ccc(Cl)cc1 [P-0050, (2S)-N-[(1S)-1-(4-chlorophenyl)ethyl]-2-methyl-4-[6-(4-pyridyl)-7H-pyrrolo[2,3-d]pyrimidin-4-yl]piperazine-1-carboxamide]",< 10
13,"O=C(Nc1ccc(OC(F)(F)F)cc1)N1CCN(c2ncnc3[nH]c(C#CC4CC4)cc23)CC1 [P-0053, 4-[6-(2-cyclopropylethynyl)-7H-pyrrolo[2,3-d]pyrimidin-4-yl]-N-[4-(trifluoromethoxy)phenyl]piperazine-1-carboxamide]",< 10
14,"CC[C@H](NC(=O)N1CCN(c2ncnc3[nH]c(-c4ccncc4)cc23)C[C@H]1C)c1ccccc1 [P-0054, (2R)-2-methyl-N-[(1S)-1-phenylpropyl]-4-[6-(4-pyridyl)-7H-pyrrolo[2,3-d]pyrimidin-4-yl]piperazine-1-carboxamide]",< 10
15,"Cc1ccc(NC(=O)N2CCN(c3ncnc4[nH]c(-c5ccncc5)cc34)C[C@H]2C)cn1 [P-0055, (2R)-2-methyl-N-(6-methyl-3-pyridyl)-4-[6-(4-pyridyl)-7H-pyrrolo[2,3-d]pyrimidin-4-yl]piperazine-1-carboxamide]",< 10
16,"C[C@@H]1CN(c2ncnc3[nH]c(-c4ccncc4)cc23)CCN1C(=O)NCc1cccc(Cl)c1 [P-0056, (2R)-N-[(3-chlorophenyl)methyl]-2-methyl-4-[6-(4-pyridyl)-7H-pyrrolo[2,3-d]pyrimidin-4-yl]piperazine-1-carboxamide]",< 10
17,"COc1ccc(NC(=O)N2CCN(c3ncnc4[nH]c(-c5ccncc5)cc34)C[C@H]2C)cn1 [P-0057, (2R)-N-(6-methoxy-3-pyridyl)-2-methyl-4-[6-(4-pyridyl)-7H-pyrrolo[2,3-d]pyrimidin-4-yl]piperazine-1-carboxamide]",< 10

row,Compound,GI50 [µM]
1,"C[C@H](NC(=O)N1CCN(c2ncnc3[nH]c(-c4ccncc4)cc23)C[C@H]1C)c1ccc(F)cc1 [P-0058, (2R)-N-[(1S)-1-(4-fluorophenyl)ethyl]-2-methyl-4-[6-(4-pyridyl)-7H-pyrrolo[2,3-d]pyrimidin-4-yl]piperazine-1-carboxamide]",< 10
2,"C[C@H](NC(=O)N1CCN(c2ncnc3[nH]c(-c4ccncc4)cc23)C[C@H]1C)c1ccc(Cl)cc1 [P-0059, (2R)-N-[(1S)-1-(4-chlorophenyl)ethyl]-2-methyl-4-[6-(4-pyridyl)-7H-pyrrolo[2,3-d]pyrimidin-4-yl]piperazine-1-carboxamide]",< 10
3,"C[C@@H]1CN(c2ncnc3[nH]c(-c4ccncc4)cc23)CCN1C(=O)NCc1ccc(F)cc1 [P-0061, (2R)-N-[(4-fluorophenyl)methyl]-2-methyl-4-[6-(4-pyridyl)-7H-pyrrolo[2,3-d]pyrimidin-4-yl]piperazine-1-carboxamide]",< 10
4,"C[C@@H]1CN(c2ncnc3[nH]c(-c4ccncc4)cc23)CCN1C(=O)Nc1ccc(F)c(Cl)c1 [P-0062, (2R)-N-(3-chloro-4-fluoro-phenyl)-2-methyl-4-[6-(4-pyridyl)-7H-pyrrolo[2,3-d]pyrimidin-4-yl]piperazine-1-carboxamide]",< 10
5,"C[C@@H]1CN(c2ncnc3[nH]c(-c4ccncc4)cc23)CCN1C(=O)Nc1ccc(OC(F)(F)F)cc1 [P-0063, (2R)-2-methyl-4-[6-(4-pyridyl)-7H-pyrrolo[2,3-d]pyrimidin-4-yl]-N-[4-(trifluoromethoxy)phenyl]piperazine-1-carboxamide]",< 10
6,"C[C@@H]1CN(c2ncnc3[nH]c(-c4ccncc4)cc23)CCN1C(=O)NCc1ccc(Cl)cc1 [P-0064, (2R)-N-[(4-chlorophenyl)methyl]-2-methyl-4-[6-(4-pyridyl)-7H-pyrrolo[2,3-d]pyrimidin-4-yl]piperazine-1-carboxamide]",< 10
7,"C[C@@H]1CN(c2ncnc3[nH]c(-c4ccncc4)cc23)CCN1C(=O)Nc1ccc(Cl)cc1 [P-0065, (2R)-N-(4-chlorophenyl)-2-methyl-4-[6-(4-pyridyl)-7H-pyrrolo[2,3-d]pyrimidin-4-yl]piperazine-1-carboxamide]",< 10
8,"O=C(Nc1ccc(OC(F)(F)F)cc1)N1CCN(c2ncnc3[nH]c(-c4ccccc4F)cc23)CC1 [P-0067, 4-[6-(2-fluorophenyl)-7H-pyrrolo[2,3-d]pyrimidin-4-yl]-N-[4-(trifluoromethoxy)phenyl]piperazine-1-carboxamide]",< 10
9,"CC1CN(c2ncnc3[nH]c(-c4ccncc4)cc23)CCN1C(=O)Nc1ccccc1 (stereo not drawn) [P-0068, 2-methyl-N-phenyl-4-[6-(4-pyridyl)-7H-pyrrolo[2,3-d]pyrimidin-4-yl]piperazine-1-carboxamide]",< 10
10,"COc1cccc([C@H](C)NC(=O)N2CCN(c3ncnc4[nH]c(-c5ccc(C#N)cc5)cc34)CC2)c1 [P-0069, 4-[6-(4-cyanophenyl)-7H-pyrrolo[2,3-d]pyrimidin-4-yl]-N-[(1S)-1-(3-methoxyphenyl)ethyl]piperazine-1-carboxamide]",< 10
11,"O=C(NCc1cccc(OC(F)F)c1)N1CCN(c2ncnc3[nH]c(-c4ccc(F)cc4)cc23)CC1 [P-0073, N-[[3-(difluoromethoxy)phenyl]methyl]-4-[6-(4-fluorophenyl)-7H-pyrrolo[2,3-d]pyrimidin-4-yl]piperazine-1-carboxamide]",< 10
12,"C[C@@H]1CN(c2ncnc3[nH]c(-c4ccncc4)cc23)CCN1 [P-0074, 4-[(3R)-3-methylpiperazin-1-yl]-6-(4-pyridyl)-7H-pyrrolo[2,3-d]pyrimidine]",< 10
13,"C[C@H](NC(=O)N1CCN(c2ncnc3[nH]c(-c4ccc(F)cc4)cc23)CC1)c1cccc(OC(F)(F)F)c1 [P-0075, 4-[6-(4-fluorophenyl)-7H-pyrrolo[2,3-d]pyrimidin-4-yl]-N-[(1S)-1-[3-(trifluoromethoxy)phenyl]lethyl]piperazine-1-carboxamide]",< 10
14,"O=C(NCc1cccc(OC(F)(F)F)c1)N1CCN(c2ncnc3[nH]c(-c4ccc(F)cc4)cc23)CC1 [P-0076, 4-[6-(4-fluorophenyl)-7H-pyrrolo[2,3-d]pyrimidin-4-yl]-N-[[3-(trifluoromethoxy)phenyl]methyl]piperazine-1-carboxamide]",< 10
15,"CS(=O)(=O)Nc1ccc(-c2cc3c(N4CCN(C(=O)Nc5ccc(OC(F)(F)F)cc5)CC4)ncnc3[nH]2)cc1 [P-0077, 4-[6-[4-(methanesulfonamido)phenyl]-7H-pyrrolo[2,3-d]pyrimidin-4-yl]-N-[4-(trifluoromethoxy)phenyl]piperazine-1-carboxamide]",< 10
16,"Cc1ncc(-c2cc3c(N4CCN(C(=O)NCc5ccc(F)cc5)CC4)ncnc3[nH]2)s1 [P-0079, N-[(4-fluorophenyl)methyl]-4-[6-(2-methylthiazol-5-yl)-7H-pyrrolo[2,3-d]pyrimidin-4-yl]piperazine-1-carboxamide]",< 10

# Reference: US10227357B2, “Compounds and methods for kinase modulation, and indications therefor” (Plexxikon Inc., priority 2012, dated 2019)
